Test results published in article PMC5577446.
No constants are given. Whether binding was seen depends on the method and setting. Binding seen in cells or lysates may run through a third protein.

Biological target: endogenous TACC3 in TERT-B cells (human (endogenous in TERT-B)) (UniProt Q9Y6A5)
Assay: co-IP; 1 mg whole-cell extract (RT112 asynchronous or synchronized in mitosis by thymidine/nocodazole; TERT-B asynchronous), lysis in 20 mM Tris–Cl pH 7.5, 137 mM NaCl, 1% NP-40; precipitated with 10 µg agarose-conjugated anti-TACC3 (N-terminus, sc22773), 4°C, 2 h; blots with anti-FGFR3 and anti-TACC3

Q: “FGFR3 (fibroblast growth factor receptor 3) endogenous in TERT-B cells (from UniProt P22607 23-806)” was tested. Which binding did it give?
A: Its binding is “no binding”.
